# The list shows a part of the results.
# Protein sequences, listed by entry. Tags and fused reporters are not part of them.
# UniProt Q0JBA9, entry or part of it: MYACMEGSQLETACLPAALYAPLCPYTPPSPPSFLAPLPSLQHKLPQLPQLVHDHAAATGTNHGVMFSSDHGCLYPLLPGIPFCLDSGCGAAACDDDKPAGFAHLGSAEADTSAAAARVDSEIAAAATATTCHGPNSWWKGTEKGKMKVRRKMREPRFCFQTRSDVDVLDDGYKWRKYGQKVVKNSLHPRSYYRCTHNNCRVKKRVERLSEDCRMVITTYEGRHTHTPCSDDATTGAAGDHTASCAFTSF
# Molecular target: OsWRKY34 (Oryza sativa, UniProt Q0JBA9 1-250)
# Experiment: protein-binding microarray (RPBM); PBS, 2% BSA, 51.3 ng/ul salmon testes DNA, 50 uM zinc acetate, 200 nM TF, 25 C, 1 h; high values mean tight binding
# Settings: protein: recombinant; tags: N-terminal polyhistidine and DsRed monomer fusion (pET32a); label: CyDye5-dUTP incorporated in the synthesized complementary strand; 3' TTTTT single-stranded linker to array surface; dsDNA, one strand shown
# In short: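 A custom Agilent array was converted to double-stranded form by primer extension with Cy5-dUTP and blocked with 2% BSA. Protein at 200 nM in PBS with 2% BSA, salmon testes DNA and 50 µM zinc acetate was applied for 1 h at 25 °C, followed by washing. The proteins were polyhistidine–DsRed N-terminal fusions of transcription factors, expressed in E. coli BL21-CodonPlus and Ni–NTA-purified. The binding signal is per-feature fluorescence intensity (arbitrary units) from an Axon 4000B scanner.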
row,Sequence,binding signal
1,GACGACTGCGAGCCTCTCCTTCCCTTCCACCTTTTTTCTTCGGAGTCACCTAGTGCAG,11300 fluorescence intensity (a.u.)
2,CACCCTTATTTTGTTGGGATTCTCCTGATCTATTTTTAGACGGAGTCACCTAGTGCAG,8470 fluorescence intensity (a.u.)
3,GGACGCCGGATATCTGGTTTTGCGGTTTGAGGATGTTTTTCGGAGTCACCTAGTGCAG,9530 fluorescence intensity (a.u.)
4,AGTGCTGGCTTTGATGGTATATATGGTTTGCGCCGACTCACGGAGTCACCTAGTGCAG,10400 fluorescence intensity (a.u.)
5,GGGGTTAGTTGTCCGTTTTGCATAGTTGGGGATAAAAAATCGGAGTCACCTAGTGCAG,18500 fluorescence intensity (a.u.)
6,AACTTTTAACTTTTCCATCACATCAAAACTTTCCTACACACGGAGTCACCTAGTGCAG,8380 fluorescence intensity (a.u.)
7,CTTCCCACTTTAGTTGTTTGCGAATTATAAGGGAGCACTTCGGAGTCACCTAGTGCAG,8620 fluorescence intensity (a.u.)
8,TTTAAACTCTCTTGTTCTAGCTGTCCTCTATCGATTGTTCCGGAGTCACCTAGTGCAG,10800 fluorescence intensity (a.u.)
9,TTCTCCATTTTTTCATGGTTGACTCTAATCTTCATGACTACGGAGTCACCTAGTGCAG,8280 fluorescence intensity (a.u.)
10,CTGCATGTCTACGCTCCATTGTAGTCGCCATGGTTACATTCGGAGTCACCTAGTGCAG,10900 fluorescence intensity (a.u.)
11,TGTACTCATATTGTTTTTCTGTTTCCAGTGAAGTTTTATCCGGAGTCACCTAGTGCAG,9150 fluorescence intensity (a.u.)
12,GTCAATGTATGCCCACCAACTCCCACATAACCGCAAATTTCGGAGTCACCTAGTGCAG,8450 fluorescence intensity (a.u.)
13,ATATCACAATGATTTTCGGCCCTTACCGTTCACAAAAACCCGGAGTCACCTAGTGCAG,9140 fluorescence intensity (a.u.)
14,TACGGTCGTCGTCGTCGCTGCCGGCAAGGTGAGGGGAGGGCGGAGTCACCTAGTGCAG,8950 fluorescence intensity (a.u.)
15,ATATGCTAATAGCTCGTCCTGTTTTAAGTAACCATCGTATCGGAGTCACCTAGTGCAG,8720 fluorescence intensity (a.u.)
16,CATTGTGTGTTCCCTCAGTGTACTACGAGTAGCGAAATAACGGAGTCACCTAGTGCAG,8120 fluorescence intensity (a.u.)
17,CTCATGTATAGATATATCTATCTCCTAACTCAACATTTCCCGGAGTCACCTAGTGCAG,9160 fluorescence intensity (a.u.)
18,TCTGAATGGCTGTTTCGTTTGATAATCGATGCCCCTAGCTCGGAGTCACCTAGTGCAG,9020 fluorescence intensity (a.u.)
19,CCGCCGCATTCTTGTCACCTTGTTGATTCTTCATTCTTGACGGAGTCACCTAGTGCAG,11900 fluorescence intensity (a.u.)
20,GTAGCAATTTATGAAAAGTTTATGGACCGATGCCCCTTTTCGGAGTCACCTAGTGCAG,8210 fluorescence intensity (a.u.)
21,GCTCACCAACAAGCTTCCTCATGTACTCATCCGTCAACTCCGGAGTCACCTAGTGCAG,9840 fluorescence intensity (a.u.)

row,Sequence,binding signal
1,TTGAATCCTCATCATCATCGCCTTAATTGCATCGGTTAATCGGAGTCACCTAGTGCAG,9580 fluorescence intensity (a.u.)
2,GGCACTTTTACAATTCACACGCGCGAATATTTTTTTTCCTCGGAGTCACCTAGTGCAG,8990 fluorescence intensity (a.u.)
3,CCTCTTGTTTTCCGTTTGTATCTCATTATCTGTATCTCTCCGGAGTCACCTAGTGCAG,12000 fluorescence intensity (a.u.)
4,GGCGCCATCTTTTCCGCATTCTTTCCATCCGGATTCCGGCCGGAGTCACCTAGTGCAG,9600 fluorescence intensity (a.u.)
5,TGGTTTTCCAAGATGCCTTGCGTTGTTGTTTACTCATTGTCGGAGTCACCTAGTGCAG,8820 fluorescence intensity (a.u.)
6,TTCTTACTAGCCCGTGTTGCTTTTTCCAGGTCTTGTCGTTCGGAGTCACCTAGTGCAG,14000 fluorescence intensity (a.u.)
7,GGGTTTCTTTCCAACTTTTTTTTTGTTGTTGTTGCTCTCCCGGAGTCACCTAGTGCAG,10700 fluorescence intensity (a.u.)
8,TCAAACTTTCAAATTTCCATCACATCAAACCTTTCATACCCGGAGTCACCTAGTGCAG,8390 fluorescence intensity (a.u.)
9,TATAAAGCGTGACATTCTATTCTTACATTTTTTACATCGTCGGAGTCACCTAGTGCAG,8120 fluorescence intensity (a.u.)
10,CGCCGCTCCCGCCGCCCACCGCCTGCCGCCGCTCCCACCGCGGAGTCACCTAGTGCAG,8890 fluorescence intensity (a.u.)
11,AGATTACCTTTACTCTACTTATCTCAATTTTTTTAATCTTCGGAGTCACCTAGTGCAG,8240 fluorescence intensity (a.u.)
12,TTCTCGGGGTATACTTTCATTCTCCCGATTCTATTAGATGCGGAGTCACCTAGTGCAG,8720 fluorescence intensity (a.u.)
13,ATGACCCCTTGATTGCATAACACACATACTAGGTCATACTCGGAGTCACCTAGTGCAG,9110 fluorescence intensity (a.u.)
14,CGCCGCCGCCACCGGGCCCGCCACCGCCGCACCAGCCGCACGGAGTCACCTAGTGCAG,10700 fluorescence intensity (a.u.)
15,CCACGTAAGTTTATAGTAGGTTTACGCTGTCTCTCTTCTCCGGAGTCACCTAGTGCAG,8910 fluorescence intensity (a.u.)
16,TTTTTTGATTTTTTCGGTCCGCTCTGTAAATACTTTTATTCGGAGTCACCTAGTGCAG,11300 fluorescence intensity (a.u.)
17,TTGTCGGGTAAAATTTTCTTGTACTTTCTTGGGATGCAATCGGAGTCACCTAGTGCAG,10600 fluorescence intensity (a.u.)
18,TGTAAGGGTGTGGTTAGGTTGGGAGTACGTTCCTTTTGTCCGGAGTCACCTAGTGCAG,11500 fluorescence intensity (a.u.)
19,ATCGGTCCCTTGTCCGTTGTGCTCGATGGGCTCCTCCGCCCGGAGTCACCTAGTGCAG,9600 fluorescence intensity (a.u.)
20,TTTTTCCTGTGGTCTAATCAAACGGTCATTCCTATATTTTCGGAGTCACCTAGTGCAG,10100 fluorescence intensity (a.u.)
21,GGAGATCTCTATCACCTCCTCGCCGACGTCGGCCGCGCCGCGGAGTCACCTAGTGCAG,9370 fluorescence intensity (a.u.)

row,Sequence,binding signal
1,TCACTACCCATGTTTGGTTCCCGGCTGGCTCAAATTTTGTCGGAGTCACCTAGTGCAG,9580 fluorescence intensity (a.u.)
2,TCTTCTGTTCATCCATTTTGTTTTGGATTCCCTTTTCATCCGGAGTCACCTAGTGCAG,12500 fluorescence intensity (a.u.)
3,AGGATTTATTGTGTATTTACCAACAGGCCCTTAATATATTCGGAGTCACCTAGTGCAG,8160 fluorescence intensity (a.u.)
4,AATACTTAATTAATCATGTGCTAGCCCTTGCTTCATTTTACGGAGTCACCTAGTGCAG,8550 fluorescence intensity (a.u.)
5,TATAAGTCGTTTTACTTTTTTCCTTGACCAAGTTTAACCACGGAGTCACCTAGTGCAG,8200 fluorescence intensity (a.u.)
6,CCTTGTCATCCACCGCGCCCACCCGCCCGGCACCCGCACACGGAGTCACCTAGTGCAG,12100 fluorescence intensity (a.u.)
7,GCTAGTTCATCCTGTCGCCAACGTGCCAGTCTCTGTCTGACGGAGTCACCTAGTGCAG,9370 fluorescence intensity (a.u.)
8,ATTGCAGCTGCCTTTTCTCCACTGAATTCTACTCCATTCTCGGAGTCACCTAGTGCAG,8460 fluorescence intensity (a.u.)
9,CTCTCCCGGATCACACGACACCCACCGTTTGCCTACTTTTCGGAGTCACCTAGTGCAG,13400 fluorescence intensity (a.u.)
10,TTCGCTCATTTCCATTGGACGCAGCCAACTCCGCGTCCGCCGGAGTCACCTAGTGCAG,8310 fluorescence intensity (a.u.)
11,ATGTATGGCCTGGTTTAGTTCCCCAGCTTTTTTCCCTAAACGGAGTCACCTAGTGCAG,9740 fluorescence intensity (a.u.)
12,CCTACTCTTGATTATGGTGCTTTTGTTTTGCGCTTATTTCCGGAGTCACCTAGTGCAG,14600 fluorescence intensity (a.u.)
13,AAGTGTGATTTCCTCGTTAGTTCGATACGTTTCACGTTTGCGGAGTCACCTAGTGCAG,8240 fluorescence intensity (a.u.)
14,ATCTCGCCTCTTTGCGCTTTCGCTGGAACCCTATTTCTCCCGGAGTCACCTAGTGCAG,13600 fluorescence intensity (a.u.)
15,TCCGCGCTTCTTCCACCCGATCGCGCCTCTCCCTCACGCACGGAGTCACCTAGTGCAG,10000 fluorescence intensity (a.u.)
16,CCCTTCCCCACGTGTTCTCCTCTTCCCCGCCACGACGAAGCGGAGTCACCTAGTGCAG,8210 fluorescence intensity (a.u.)
17,CACCAATCACTGGGCCCGGCCGTACGTATCTCTTGTTCTCCGGAGTCACCTAGTGCAG,9750 fluorescence intensity (a.u.)
18,GGGTATGCTGTGGGCCAGAGGGGTGTGGCTAGTGGTGCCGCGGAGTCACCTAGTGCAG,9810 fluorescence intensity (a.u.)
19,TTTTGCTAACTGCGGTCATCTTAAATATTCAGTATTCCTTCGGAGTCACCTAGTGCAG,8900 fluorescence intensity (a.u.)
20,AGCGTGACCATTGTATGTCCGGCATGTGCTACACGGCTTTCGGAGTCACCTAGTGCAG,9680 fluorescence intensity (a.u.)
21,GCTGAGTTTTTTTCTAGATTTTCACAAGCTGTTTCTCATACGGAGTCACCTAGTGCAG,8840 fluorescence intensity (a.u.)

# Part of the list above, as tab-separated lines.
row	Sequence	binding signal
17	CACCAATCACTGGGCCCGGCCGTACGTATCTCTTGTTCTCCGGAGTCACCTAGTGCAG	9750 fluorescence intensity (a.u.)
18	GGGTATGCTGTGGGCCAGAGGGGTGTGGCTAGTGGTGCCGCGGAGTCACCTAGTGCAG	9810 fluorescence intensity (a.u.)

# An excerpt of these results, bar-delimited.
row | Sequence | binding signal
2 | TCTTCTGTTCATCCATTTTGTTTTGGATTCCCTTTTCATCCGGAGTCACCTAGTGCAG | 12500 fluorescence intensity (a.u.)
9 | CTCTCCCGGATCACACGACACCCACCGTTTGCCTACTTTTCGGAGTCACCTAGTGCAG | 13400 fluorescence intensity (a.u.)
14 | ATCTCGCCTCTTTGCGCTTTCGCTGGAACCCTATTTCTCCCGGAGTCACCTAGTGCAG | 13600 fluorescence intensity (a.u.)

# Carrying on.

row,Sequence,binding signal
1,GCACTTTGTTGCACGGTTCGCACCCCACCCCGGCGCGCGCCGGAGTCACCTAGTGCAG,9830 fluorescence intensity (a.u.)
2,CGCTCGCTGGCACATTTATCATGTTTTCATTTTAAACCATCGGAGTCACCTAGTGCAG,8600 fluorescence intensity (a.u.)
3,ACTTCTTCTTGGACTCTCCTTTTTTTTTCCGATTAATGTGCGGAGTCACCTAGTGCAG,10600 fluorescence intensity (a.u.)
4,CTGGTCAAATCCAATGCACCTCCACAAAAGCATCACACAACGGAGTCACCTAGTGCAG,8080 fluorescence intensity (a.u.)
5,GTGTTGCTGGTGAGGATGTGTTATGTGAATTTTAGTTCGACGGAGTCACCTAGTGCAG,8530 fluorescence intensity (a.u.)
6,CACTCCGCTTCCTCTCCCGCCACCTCTCCTCTTCATCTTCCGGAGTCACCTAGTGCAG,8950 fluorescence intensity (a.u.)
7,TGCTATTTGTACGTTGAATTTGTCTTTTTATATCTTCGATCGGAGTCACCTAGTGCAG,8550 fluorescence intensity (a.u.)
8,GTGCAGGATACATGTTAACTCCCTAACCTTTTCCTTTTTCCGGAGTCACCTAGTGCAG,8660 fluorescence intensity (a.u.)
9,TTCAGTGACCTACTGTACTTCGCCACCGCCTGCTTCTCGCCGGAGTCACCTAGTGCAG,9300 fluorescence intensity (a.u.)
10,GTTTGTGTTCTTGGATTGGGTTGGGTTGGGTTGGTGAGGTCGGAGTCACCTAGTGCAG,17600 fluorescence intensity (a.u.)
11,GAGGGTGTGGTGGGTGAGCGCCGTCTTGACGAGGAGCGCGCGGAGTCACCTAGTGCAG,10000 fluorescence intensity (a.u.)
12,AGTATAACTATCTGTCTTATCGGTTATCTGTACTGCGACTCGGAGTCACCTAGTGCAG,8880 fluorescence intensity (a.u.)
13,CCATCCTACTTATTATACTAAATCGTTTTGTGGATGTGTACGGAGTCACCTAGTGCAG,9660 fluorescence intensity (a.u.)
14,CTGTAAATTATTTTTCTATTGTTCTATTTATTCTTTTTCACGGAGTCACCTAGTGCAG,8030 fluorescence intensity (a.u.)
15,TAACTCACCCGCCCGACAGAGCCTCTCAATCTGCACGTCCCGGAGTCACCTAGTGCAG,8110 fluorescence intensity (a.u.)
16,ACTTATTTTACTGTGCTTCATTCAACCTTAATGGCAATGTCGGAGTCACCTAGTGCAG,12100 fluorescence intensity (a.u.)
17,CGCCGCCGACGATCTCGTCTCGCACCGCCTCTCTCTCGGTCGGAGTCACCTAGTGCAG,8160 fluorescence intensity (a.u.)
18,ATTTTCCGGCGAGGTTTGTAGGGGAGGGATCGAGGAGATGCGGAGTCACCTAGTGCAG,8620 fluorescence intensity (a.u.)
19,TGTATATGTGCCCTTTTTGGTGGACGACCTGGCTAACTTTCGGAGTCACCTAGTGCAG,8510 fluorescence intensity (a.u.)
20,TCTGTCCGTGCCTCGCTTCCATCGCCATTGCTCTTTTGCTCGGAGTCACCTAGTGCAG,11100 fluorescence intensity (a.u.)
21,ACTATTTGCATTGTTCGTTGCTCTGCATTGCACCTCTCGACGGAGTCACCTAGTGCAG,10900 fluorescence intensity (a.u.)
